# For some assays here: At least one structure is not confirmed: it was looked up by name or label, or the drawing left a doubt. Some results were stated once for a whole list of compounds, not compound by compound.
# Columns and labels:
# SAMs = assay: SAM viability (CyQuant Direct / resazurin); format: cell-based, mouse
# Protocol: FIG. 8. Immunomodulatory regulation of p16(Ink4a) and SAβG in macrophages. Peritoneal lavage cells elicited by alginate-encapsulated SCs from p16^Ink4a/Luc mice were treated ex vivo with immunomodulatory agents for up to 72 hours. (A) mRNA expression of p16(Ink4a) and β-galactosidase (Glb1) in macrophages (relative to B2m expression) with or without LPS stimulation for 72 hours analyzed via qRT-PCR, normalized to non-treated controls. (B) Microphotograph of SAβG-stained adherence-selected macrophages with or without stimulation with LPS (1 ng/mL) for 72 hours (10× objective). […] (E) Luciferase activity and (3-galactosidase activity (via 4-MUG hydrolysis) from proteose peptone-elicited lavage cells following stimulation with IL-4 (20 ng/mL) for 72 hours, normalized to non-treated controls. (F) Viability following 72 hour dose-response to JAK1/2 inhibitor Ruxolitinib in the presence or absence of IL-4 (10 ng/mL) stimulation, measured by CyQuant Direct DNA-based viability assay. Viability normalized to respective controls lacking Ruxolitinib. (G&H) Dose-response of STAT6 inhibitor AS1517499 against luciferase activity (G) and viability via CyQuant Direct assay (H) following 72 hour treatment in the presence and absence of IL-4 (10 ng/mL). […] Luciferase activity is expressed as the percent activity per cell relative to non-treated (NT) controls after the first 72 hours. […]
# [1] = system: p16(Ink4a) expression in SAMs; assay: p16(Ink4a) promoter-dependent luciferase activity in alginate bead-elicited macrophages (SAMs) ex vivo; format: cell-based, mouse; conditions: IL-4 10 ng/mL; 72 hour
# Protocol: FIG. 7. Immunomodulatory regulation of p16(Ink4a) and SAβG in macrophages. Peritoneal lavage cells elicited by alginate-encapsulated SCs from p16^Ink4a/Luc mice were treated ex vivo with immunomodulatory agents for 72 hours. A) p16 promoter-dependent luciferase activity (black bars) and […] activity (via 4-MUG hydrolysis) (gray bars) were measured following treatment with M1- and M2-polarizing stimuli: LPS at 1 ng/mL, IFN-γ at 10 ng/mL, LPS/IFN-γ co-treatment, Poly(I:C) at 10 μg/mL, IFN-α at 100 U/mL, IL-4 at 20 ng/mL, IL-13 at 10 ng/ml, and IL-4/IL-13 co-treatment. Results are shown as the mean±standard deviation for at least 3 independent experiments, with statistical significance between treated compared to non-treated samples depicted. […] Enzyme activities are expressed as the percent activity relative to non-treated (NT) controls per cell. […]
# FIG. 8. […] (A) mRNA expression of p16(Ink4a) and β-galactosidase (Glb1) in macrophages (relative to B2m expression) with or without LPS stimulation for 72 hours analyzed via qRT-PCR, normalized to non-treated controls. […] Statistical significance is calculated with respect to the difference between IL-4 stimulated and non-stimulated cells at each concentration of STAT6 inhibitor. […] Luciferase activity is expressed as the percent activity per cell relative to non-treated (NT) controls after the first 72 hours. […]
# [2] = system: p16(Ink4a) in mLF and mVAT fibroblasts; assay: Modulation of p16(Ink4a) in mouse lung and visceral adipose tissue-derived fibroblasts; format: cell-based
# Description: We next sought to determine whether immunomodulatory agents, and other small molecules, were capable of selectively modulating p16(Ink4a) expression in SAMs by comparing their effects on p16 expression in SAMs to that of mouse lung fibroblasts (mLF) and mouse visceral adipose tissue-derived fibroblasts (mVAT). […] Immunomodulatory agents cause little to no change in p16 expression in fibroblasts. For example, mouse fibroblasts are reported to respond to LPS and IL-4 (expressing TLR4 and IL-4R, respectively), yet these agents are unable to modulate p16 in fibroblasts.
# [3] = system: B16 melanoma lung metastasis in C57BL/6 mice; assay: Senescence-enhanced B16 lung metastasis model; format: in vivo, mouse; conditions: 20 mg/kg intraperitoneally once a day for 5 consecutive days; irradiated (11 Gy) C57BL/6 mice
# Description: FIG. 4. Efficacy of A1.1 analogs in the senescence-enhanced B16 metastasis model. (A) Quantification of metastatic nodules by H&E morphometric analysis, and the resulting reduction in tumor burden (%) compared to vehicle control. (B) Quantitation morphometric analysis of lungs excised from irradiated mice treated with analogs of A1.1 post-inoculation of B16 cell intravenously, along with quantitation of morphometric analysis, are provided. (C) In vitro testing of A1.1 and analogs against the growth and viability of B16 cells, as assessed by the resazurin viability assay after 72 hour exposure to compounds compared to non-treated controls.
# The role of senescent cells in the promotion of metastatic potential of cancer cells has also been described [Patent WO 2013090645 A1; Campisi, J. (2015). Cancer and Aging: Rival Demons]. […] To test the efficacy of A1.1, irradiated (11 Gy followed by bone-marrow transplantation) and non-irradiated C57BL/6 mice received B16 melanoma cells via tail vein injection were subsequently (72 hours later) administered A1.1 (20 mg/kg) intraperitoneally once a day for 5 consecutive days.
# Synthesized analogs were also tested in vivo, to assess whether optimized structures are capable of showing activity against senescence-mediated B16 lung metastasis in irradiated mice (FIG. 4B). Analogs A1.1, A1.12, A1.13, A1.14, A1.15, and A1.6 were administered at 20 mg/kg intraperitoneally for 5 consecutive days. In addition to A1.1, treatment with analogs A1.12, A1.14 and A1.15 at 20 mg/kg reduced the metastatic burden in the lungs of irradiated mice by more than 2-fold.
compound,measurement,setting,value
N#CC[C@H](C1CCCC1)n1cc(-c2ncnc3[nH]ccc23)cn1 [ruxolitinib],viability of macrophages (CyQuant Direct),"SAMs; 72 hour, presence or absence of IL-4 10 ng/mL",without affecting viability
same,IL-4-dependent increase in luciferase activity / p16(Ink4a) expression,[1],abrogated
same,Modulation of p16(Ink4a): mLF and mVAT Senescent,[2]; 20Gy irradiation for senescence induction,no change
same,Modulation of p16(Ink4a): mLF and mVAT Proliferating,[2]; without irradiation,no change
CCNC(=O)c1sc(SCc2ccccc2)c2c1CC(c1ccc(OC)cc1)C/C2=N\O (centres unmarked) [Example A1.12],reduction of B16 metastatic load in the lungs of irradiated mice vs vehicle,[3],more than 2 fold
"COc1ccc(C2C/C(=N\O)c3c(SCc4ccccc4)sc(C(=O)NCc4ccccc4)c3C2)cc1 (centres unmarked) [Example A1.14, N-benzyl-3-(benzylthio)-4-(hydroxyimino)-6-(4-methoxyphenyl)-4,5,6,7-tetrahydrobenzo[c]thiophene-1-carboxamide]",reduction of B16 metastatic load in the lungs of irradiated mice vs vehicle,[3],more than 2 fold
"COc1ccc(C2C/C(=N\O)c3c(SCc4ccccc4)sc(C(=O)NCc4ccco4)c3C2)cc1 (centres unmarked) [Example A1.15, 3-(Benzylthio)-N-(furan-2-ylmethyl)-4-(hydroxyimino)-6-(4-methoxyphenyl)-4,5,6,7-tetrahydrobenzo[c]thiophene-1-carboxamide]",reduction of B16 metastatic load in the lungs of irradiated mice vs vehicle,[3],more than 2 fold
Poly(I:C),viability via CyQuant Direct assay,"SAMs; 72 hr dose-response, macrophages and AdMSCs (FIG. 10)",> 80%

# — US20200123127A1, “REMOVAL OF SENESCENCE-ASSOCIATED MACROPHAGES” (EVERON BIOSCIENCES, INC., priority 2016, published 2020)
